Test results taken from the supplement of paper PMC10338343.
± gives the standard deviation. Only a part is listed here, and it is no random draw. Many entries were measured with a wide error. The list shows a part of the results.

What was measured:
[1] = tested on: MILI (PIWIL2) piRISC loaded with L1MC piRNA (26 nt); assay: pre-steady-state target cleavage rate (min^-1); higher = faster piRNA-guided slicing of the target; details: guide: L1MC piRNA 5'p-UAACUAAAUACUAUGCAAGCUGUAGG
Procedure, shortened: (§1)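 Sequencing of uncleaved targets, normalised to depth and to weakly complementary targets, was the readout of this Cleave-'n-Seq assay. A transcribed, DNA-blocked target RNA library (0.1 nM) was mixed with 1 nM active affinity-purified piRISC carrying one synthetic guide, with or without 500 nM GTSF1 partner protein, in HEPES–potassium acetate buffer at 33 °C for 0–8 or 0–960 min. Three trials were pooled, k3 was capped at 0.0001 min^-1, and a burst-and-steady-state fit gave the pre-steady-state cleavage rate.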

[2] = tested on: EfPiwi piRISC loaded with L1MC piRNA (26 nt); assay: pre-steady-state target cleavage rate (min^-1); guide: L1MC piRNA 5'p-UAACUAAAUACUAUGCAAGCUGUAGG; MIWI and MILI are mouse PIWI proteins and EfPiwi is from a freshwater sponge; tags in brackets are library labels; higher = faster piRNA-guided slicing of the target
Procedure, shortened: as §1

[3] = auxiliary factor: 500 nM mouse GTSF1
[4] = auxiliary factor: none (no GTSF1)
[5] = auxiliary factor: 500 nM Ephydatia muelleri Gtsf1
[6] = auxiliary factor: none (no Gtsf1)

Row | Sequence | pre-steady-state target cleavage rate [1, 3] | pre-steady-state target cleavage rate [1, 4] | pre-steady-state target cleavage rate [2, 5] | pre-steady-state target cleavage rate [2, 6]
1 | UCCUGGAACUGCUUGCAUAGUAUUUACUUA | 0.0984 ± 0.027 | 0.00292 ± 0.0023 | 0.00246 ± 0.0038 | 0.000985 ± 0.0089
2 | UCCUCCUACAGCAUGCAUAGAAUUUAGUUA | 0.176 ± 0.044 | 0.00199 ± 0.0036 | 0.00245 ± 0.0015 | 0.00039 ± 0.013
3 | UCCUGCUACACCUUGCAUAGUAUUUUGUUA | 0.1 ± 0.032 | 0.00209 ± 0.0042 | 0.00317 ± 0.0023 | 0.000533 ± 0.015
4 | UCCUGGAACAGCUUGCAAAGUAUUUAGAAA | 0.166 ± 0.038 | 0.00214 ± 0.0032 | 0.00418 ± 0.002 | 0.000214 ± 0.037
5 | UCCUGGAUGAGCAUGCAUAGAAUUUAGUUA | 0.0184 ± 0.008 | 0.00251 ± 0.0028 | 0.00156 ± 0.0029 | 0.000711 ± 0.011
6 | UCCUGGUACAGUCUUGCAUAGUAUUUAGUUA | 0.254 ± 0.033 | 0.0122 ± 0.0047 | 0.00209 ± 0.0046 | 0.000346 ± 0.04
7 | UCCUGGAACAGCUUGCUUAGUAUUUAGUUA | 0.264 ± 0.01 | 0.00723 ± 0.0021 | 0.0181 ± 0.005 | 0.000809 ± 0.01
8 | UCCUGGAACAGCUUGCAUAGUAUUUAUUUA | 0.113 ± 0.026 | 0.00154 ± 0.005 | 0.00534 ± 0.0034 | 0.00106 ± 0.011
9 | UCCUGGAUGUGCUUGCAUAGUAAUUACUUA | 0.00537 ± 0.0033 | 0.000738 ± 0.0095 | 0.00173 ± 0.0042 | 0.000264 ± 0.026
10 | UCCUGGAUCAGCUUGCAUUGUAUUUAGUAA | 0.144 ± 0.014 | 0.00277 ± 0.0032 | 0.00441 ± 0.0018 | 0.000288 ± 0.036
11 | UCCUGCUACAGCAUGCAUAGUAUUUAGAUA | 0.179 ± 0.033 | 0.0018 ± 0.0046 | 0.00378 ± 0.0015 | 0.000111 ± 0.039
12 | UCCUCCUACAGCUUGCAUAGUAUUUGAGUUA | 0.199 ± 0.028 | 0.00484 ± 0.0026 | 0.00541 ± 0.0025 | 0.000816 ± 0.0083
13 | UCCUGGAACAGCUUGGAUAGUAUAUAGUUA | 0.215 ± 0.027 | 0.00403 ± 0.0027 | 0.00939 ± 0.0043 | 0.000671 ± 0.012
14 | UCCUGGAUGAGCUUGCAUAGUAUUGAGUUA | 0.164 ± 0.036 | 0.00369 ± 0.0027 | 0.00461 ± 0.0019 | 0.000699 ± 0.014
15 | UCCUGGAUGUCGUUGCAUAGUAUUUAGUUUA | 0.178 ± 0.018 | 0.0103 ± 0.0039 | 0.0007 ± 0.016 | 0.000676 ± 0.015
16 | UCCUGGAUGUCGUUGCAUAGUAAAAAGUUA | 0.00309 ± 0.0044 | 0.00188 ± 0.0034 | 0.000334 ± 0.011 | 0.000244 ± 0.03
17 | UCCUGCAACACCUUGCAUAGUAUUUAGUUA | 0.192 ± 0.026 | 0.00568 ± 0.0027 | 0.0123 ± 0.0034 | 0.00063 ± 0.011
18 | UCCUGGAUGUGCUUGGAUAGUAUUUAGUAA | 0.117 ± 0.021 | 0.00233 ± 0.0032 | 0.00252 ± 0.0037 | 0.000463 ± 0.024
19 | UCCUGCUUCAGCUUGCAUUGUAUUUAGUUA | 0.218 ± 0.013 | 0.0103 ± 0.0023 | 0.0233 ± 0.0065 | 0.00121 ± 0.0069
20 | UCCUGGAACAGGCUUGCAUAGUAUUUAGUUA | 0.219 ± 0.019 | 0.0094 ± 0.0029 | 0.0145 ± 0.0037 | 0.00165 ± 0.0057
21 | UCCUGGUACAGCUUGCAUUGUAUAUAGUUA | 0.087 ± 0.018 | 0.00415 ± 0.0033 | 0.00226 ± 0.0033 | 0.000427 ± 0.02
22 | UCCUGGAUGAGCUUGCAUAGUAUUUAGCUUA | 0.104 ± 0.026 | 0.00163 ± 0.0051 | 0.00409 ± 0.0018 | 0.000673 ± 0.013
23 | UCCUGCUACAGCUUGCAUAGUAUGUUAGUUA | 0.164 ± 0.036 | 0.00171 ± 0.0045 | 0.00247 ± 0.002 | 0.000511 ± 0.017

Copied from the list:
pre-steady-state target cleavage rate [2, 5], UCCUGGAACAGCUUGCUUAGUAUUUAGUUA is entered as 0.0181 ± 0.005
pre-steady-state target cleavage rate [1, 4], UCCUGGAUGUCGUUGCAUAGUAUUUAGUUUA is entered as 0.0103 ± 0.0039
